Measurements reported in PubChem BioAssay AID1259308 (NCATS, 2017).

- Screen: 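Knock-downs that increase output of a recombinant reporter protein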 (primary screen)
- Cell system: human HEK293 embryonic kidney cells stably expressing firefly luciferase (HEK-CMV-Luc2-Hygro)
- Reagents: single siRNA against human genes, 0.8 pmol siRNA per well
- Timing: 72 h
- Read-out: 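Luciferase light (ONE-Glo) measured on one replicate plate set and viability (CellTiter-Glo) on the other, scaled to a negative control siRNA, with robust z-scores and luciferase per cell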
- Reading the numbers: total luciferase, z-score and total luciferase, % of control: higher = more reporter protein produced; luciferase per cell, z-score: higher = more reporter output per viable cell; viable cells, % of control: higher = more viable cells
- Rule for the call: 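An siRNA counts as active if its total luciferase robust z-score exceeds 3; genes with two or more such siRNAs out of three were retested with fresh siRNAs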
- Meaning of the calls: active = raised luciferase; inactive = no rise
In all, the deposit lists about 59,000 reagents; this is an unselected part. Over the whole deposit, about 1,510 (2.6%) got an active call. 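Calls use total luciferase alone and ignore viability, so some active siRNAs may act by altering cell number.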 The numbers tell different reagents against one gene apart.

target	siRNA no.	total luciferase, z-score	total luciferase, % of control	luciferase per cell, z-score	viable cells, % of control	Outcome
SKIC8	1	-0.94	63.2	-1.12	95	inactive
SKIC8	2	-1.17	58.5	0.86	52.2	inactive
SKIC8	3	-0.487	72.2	-0.86	101	inactive
LOC728416	1	-0.476	72.4	-0.782	99.4	inactive
LOC728416	2	-0.191	78.1	-0.0175	87.7	inactive
LOC728416	3	-0.348	75	0.0899	81.8	inactive
FFAR4	1	2.95	141	1.85	96.4	inactive
FFAR4	2	0.663	95.1	-0.234	113	inactive
FFAR4	3	0.606	93.9	0.329	96.3	inactive
HNMT	1	-0.367	74.6	-0.829	104	inactive
HNMT	2	1.27	107	1.39	82.9	inactive
HNMT	3	-0.664	68.7	-0.713	92.6	inactive
G0S2	1	-0.488	72.2	-0.947	104	inactive
G0S2	2	0.0587	83.1	-0.782	114	inactive
G0S2	3	1.91	120	2.13	76.5	inactive
STK17A	1	-0.303	75.9	-0.0607	86.1	inactive
STK17A	2	0.258	87	0.438	86.6	inactive
STK17A	3	-0.664	68.7	-0.679	91.8	inactive
DGAT2L7P	1	0.058	83	0.0312	92	inactive
DGAT2L7P	2	-0.159	78.7	-0.484	99.9	inactive
DGAT2L7P	3	-1.64	49.2	-1.65	84.9	inactive
FAM157A	1	0.974	101	1.18	83	inactive
FAM157A	2	-1.38	54.4	0.133	58.7	inactive
FAM157A	3	0.357	89	0.773	81.1	inactive
ZBTB26	1	0.0963	83.8	0.355	85.3	inactive
ZBTB26	2	-0.115	79.6	0.328	81.6	inactive
ZBTB26	3	1.37	109	1.36	85.3	inactive
CDPF1	1	0.832	98.4	0.606	93.8	inactive
CDPF1	2	-0.367	74.6	0.609	71	inactive
CDPF1	3	0.966	101	0.428	101	inactive
CSTF2T	1	1.49	112	1.1	93.4	inactive
CSTF2T	2	-0.803	65.9	-0.863	92.5	inactive
CSTF2T	3	2.89	139	1.97	92.6	inactive
CROCC	1	0.135	84.6	-0.119	97.5	inactive
CROCC	2	0.121	84.3	0.648	79.4	inactive
CROCC	3	0.656	94.9	0.0177	106	inactive
CA2	1	-0.1	79.9	-0.136	92.5	inactive
CA2	2	0.162	85.1	0.32	87.4	inactive
CA2	3	-0.26	76.7	-0.76	105	inactive
FLT3	1	0.811	98	0.955	85.2	inactive
FLT3	2	-0.215	77.6	-0.565	101	inactive
FLT3	3	0.601	93.8	-0.0285	106	inactive
CDYL2	1	0.162	85.1	-0.4	106	inactive
CDYL2	2	-0.167	78.6	-0.0597	89.2	inactive
CDYL2	3	0.465	91.1	0.373	92.3	inactive
ACSS3	1	-0.794	66.1	-0.55	85.3	inactive
ACSS3	2	-0.0403	81.1	-0.291	97.8	inactive
ACSS3	3	-0.185	78.2	0.375	79.2	inactive

Just “viable cells, % of control”, for 9 of the entries above:
FAM157A #1 = 83
FAM157A #2 = 58.7
FAM157A #3 = 81.1
ZBTB26 #1 = 85.3
ZBTB26 #2 = 81.6
ZBTB26 #3 = 85.3
CDPF1 #1 = 93.8
CDPF1 #2 = 71
CDPF1 #3 = 101

Continued:
target	siRNA no.	total luciferase, z-score	total luciferase, % of control	luciferase per cell, z-score	viable cells, % of control	Outcome
CCR8	1	0.51	92	0.603	87.7	inactive
CCR8	2	0.737	96.5	0.706	89.6	inactive
CCR8	3	0.432	90.5	0.0993	98.5	inactive
UBIAD1	1	0.0315	82.5	-0.122	95.2	inactive
UBIAD1	2	-0.966	62.7	-1.04	92.1	inactive
UBIAD1	3	-0.556	70.8	0.516	69.1	inactive
LRRC37A3	1	-0.336	75.2	1.01	64.5	inactive
LRRC37A3	2	0.532	92.5	0.579	88.7	inactive
LRRC37A3	3	-0.931	63.4	-0.697	85.1	inactive
PAX7	1	2.52	132	2.96	67.6	inactive
PAX7	2	-1	62	-0.321	75.4	inactive
PAX7	3	0.552	92.9	0.137	100	inactive
RIBC2	1	0.47	91.2	0.752	83.6	inactive
RIBC2	2	-0.288	76.2	-0.712	103	inactive
RIBC2	3	-0.344	75	-0.437	94.1	inactive
CLN5	1	1.23	106	0.492	104	inactive
CLN5	2	0.405	90	-0.0636	102	inactive
CLN5	3	0.324	88.3	-0.235	105	inactive
CCDC9	1	2.12	124	1.67	89.2	inactive
CCDC9	2	-0.283	76.2	-0.703	103	inactive
CCDC9	3	-0.286	76.2	0.0292	84.5	inactive
LSM1	1	0.437	90.6	0.335	92.7	inactive
LSM1	2	0.229	86.4	-0.397	107	inactive
LSM1	3	0.29	87.7	-0.3	106	inactive
KIF1A	1	2.32	128	1.51	96.2	inactive
KIF1A	2	0.0767	83.4	-0.565	108	inactive
KIF1A	3	0.658	95	0.703	88.2	inactive
